The list shows a part of the results.

Sequences of proteins named here, by UniProt entry; tags and fusion partners are left off. A change or cut given only in a name is not applied to a line headed by its entry.
UniProt Q9NYP3: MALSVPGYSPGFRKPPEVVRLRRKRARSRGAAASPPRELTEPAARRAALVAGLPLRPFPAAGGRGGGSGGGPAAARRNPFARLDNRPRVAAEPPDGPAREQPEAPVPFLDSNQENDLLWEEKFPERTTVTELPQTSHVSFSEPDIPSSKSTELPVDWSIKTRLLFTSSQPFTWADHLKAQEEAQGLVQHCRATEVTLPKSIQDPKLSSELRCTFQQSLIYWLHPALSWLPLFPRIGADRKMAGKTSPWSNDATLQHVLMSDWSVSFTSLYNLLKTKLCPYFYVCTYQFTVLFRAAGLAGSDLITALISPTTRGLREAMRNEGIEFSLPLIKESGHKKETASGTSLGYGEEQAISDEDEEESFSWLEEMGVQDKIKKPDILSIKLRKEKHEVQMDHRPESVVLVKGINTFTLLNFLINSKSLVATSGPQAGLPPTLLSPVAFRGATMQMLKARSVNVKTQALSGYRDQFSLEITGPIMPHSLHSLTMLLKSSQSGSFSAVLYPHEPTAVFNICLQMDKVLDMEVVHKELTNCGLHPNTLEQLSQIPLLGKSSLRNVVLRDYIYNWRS
UniProt Q96BY6: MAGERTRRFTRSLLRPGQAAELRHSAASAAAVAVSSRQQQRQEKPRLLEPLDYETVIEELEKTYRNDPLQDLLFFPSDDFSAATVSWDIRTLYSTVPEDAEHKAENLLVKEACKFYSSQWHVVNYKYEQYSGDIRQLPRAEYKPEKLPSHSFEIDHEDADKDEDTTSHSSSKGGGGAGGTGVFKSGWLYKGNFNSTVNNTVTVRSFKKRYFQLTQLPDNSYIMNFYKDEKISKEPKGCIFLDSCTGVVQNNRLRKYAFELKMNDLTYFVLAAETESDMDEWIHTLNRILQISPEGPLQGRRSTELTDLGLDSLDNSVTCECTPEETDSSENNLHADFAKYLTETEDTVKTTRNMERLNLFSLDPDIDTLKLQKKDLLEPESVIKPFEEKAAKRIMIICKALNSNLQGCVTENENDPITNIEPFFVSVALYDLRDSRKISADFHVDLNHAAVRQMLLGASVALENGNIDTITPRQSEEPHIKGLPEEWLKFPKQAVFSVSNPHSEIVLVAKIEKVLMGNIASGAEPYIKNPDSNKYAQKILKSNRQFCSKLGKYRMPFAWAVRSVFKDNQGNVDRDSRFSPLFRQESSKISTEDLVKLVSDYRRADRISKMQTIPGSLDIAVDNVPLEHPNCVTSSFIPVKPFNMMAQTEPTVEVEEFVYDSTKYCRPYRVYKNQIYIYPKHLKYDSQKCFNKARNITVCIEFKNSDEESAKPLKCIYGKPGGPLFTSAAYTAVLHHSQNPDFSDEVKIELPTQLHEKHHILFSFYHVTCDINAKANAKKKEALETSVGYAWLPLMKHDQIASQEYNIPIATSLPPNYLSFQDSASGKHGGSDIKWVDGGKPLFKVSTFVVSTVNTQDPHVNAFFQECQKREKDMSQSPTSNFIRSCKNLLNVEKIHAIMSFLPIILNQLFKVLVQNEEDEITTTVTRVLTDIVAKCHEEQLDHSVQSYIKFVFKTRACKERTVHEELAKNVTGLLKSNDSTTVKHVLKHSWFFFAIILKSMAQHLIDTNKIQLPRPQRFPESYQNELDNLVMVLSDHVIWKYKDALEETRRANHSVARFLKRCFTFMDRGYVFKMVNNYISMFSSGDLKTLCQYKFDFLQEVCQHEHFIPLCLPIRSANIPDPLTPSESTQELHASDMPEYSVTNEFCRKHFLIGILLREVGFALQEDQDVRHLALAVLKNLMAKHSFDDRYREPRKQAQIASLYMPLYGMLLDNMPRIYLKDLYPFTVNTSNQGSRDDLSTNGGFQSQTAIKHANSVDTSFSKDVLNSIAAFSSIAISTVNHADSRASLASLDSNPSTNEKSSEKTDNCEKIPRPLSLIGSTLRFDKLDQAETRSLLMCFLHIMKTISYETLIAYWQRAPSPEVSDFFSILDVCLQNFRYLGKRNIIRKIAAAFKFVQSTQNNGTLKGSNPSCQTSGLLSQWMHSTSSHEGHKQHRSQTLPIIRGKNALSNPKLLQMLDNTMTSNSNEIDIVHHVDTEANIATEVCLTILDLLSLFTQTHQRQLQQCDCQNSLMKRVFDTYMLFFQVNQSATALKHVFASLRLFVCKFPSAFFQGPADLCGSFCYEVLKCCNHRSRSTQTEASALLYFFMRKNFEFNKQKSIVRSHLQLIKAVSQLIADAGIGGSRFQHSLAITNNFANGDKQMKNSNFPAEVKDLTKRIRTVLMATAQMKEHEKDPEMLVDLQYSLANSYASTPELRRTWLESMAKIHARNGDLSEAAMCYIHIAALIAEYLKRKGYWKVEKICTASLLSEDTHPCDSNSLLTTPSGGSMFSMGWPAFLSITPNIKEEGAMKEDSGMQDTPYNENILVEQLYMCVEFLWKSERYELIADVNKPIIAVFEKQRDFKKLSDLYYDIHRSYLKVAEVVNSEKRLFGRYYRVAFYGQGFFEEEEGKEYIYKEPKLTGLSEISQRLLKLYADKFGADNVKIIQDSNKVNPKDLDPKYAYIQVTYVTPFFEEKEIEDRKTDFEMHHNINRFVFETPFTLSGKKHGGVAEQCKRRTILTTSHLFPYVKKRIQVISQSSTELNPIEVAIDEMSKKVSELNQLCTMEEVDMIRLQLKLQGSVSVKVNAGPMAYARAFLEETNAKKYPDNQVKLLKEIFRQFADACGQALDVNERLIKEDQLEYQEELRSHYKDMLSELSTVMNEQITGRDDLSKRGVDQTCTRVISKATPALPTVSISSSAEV
UniProt O00716: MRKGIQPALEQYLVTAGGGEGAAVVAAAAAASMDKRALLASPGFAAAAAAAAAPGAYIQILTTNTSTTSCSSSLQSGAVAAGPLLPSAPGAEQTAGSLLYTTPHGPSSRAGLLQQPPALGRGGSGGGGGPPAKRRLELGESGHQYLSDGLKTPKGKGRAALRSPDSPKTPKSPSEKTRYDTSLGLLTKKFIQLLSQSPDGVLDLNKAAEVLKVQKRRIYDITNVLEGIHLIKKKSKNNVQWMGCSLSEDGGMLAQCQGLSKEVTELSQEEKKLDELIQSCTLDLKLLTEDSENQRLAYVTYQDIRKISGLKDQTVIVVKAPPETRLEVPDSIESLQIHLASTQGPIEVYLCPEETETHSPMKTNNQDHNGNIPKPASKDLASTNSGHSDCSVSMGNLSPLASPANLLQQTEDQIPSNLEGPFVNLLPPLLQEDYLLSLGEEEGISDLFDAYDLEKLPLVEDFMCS
UniProt Q92608: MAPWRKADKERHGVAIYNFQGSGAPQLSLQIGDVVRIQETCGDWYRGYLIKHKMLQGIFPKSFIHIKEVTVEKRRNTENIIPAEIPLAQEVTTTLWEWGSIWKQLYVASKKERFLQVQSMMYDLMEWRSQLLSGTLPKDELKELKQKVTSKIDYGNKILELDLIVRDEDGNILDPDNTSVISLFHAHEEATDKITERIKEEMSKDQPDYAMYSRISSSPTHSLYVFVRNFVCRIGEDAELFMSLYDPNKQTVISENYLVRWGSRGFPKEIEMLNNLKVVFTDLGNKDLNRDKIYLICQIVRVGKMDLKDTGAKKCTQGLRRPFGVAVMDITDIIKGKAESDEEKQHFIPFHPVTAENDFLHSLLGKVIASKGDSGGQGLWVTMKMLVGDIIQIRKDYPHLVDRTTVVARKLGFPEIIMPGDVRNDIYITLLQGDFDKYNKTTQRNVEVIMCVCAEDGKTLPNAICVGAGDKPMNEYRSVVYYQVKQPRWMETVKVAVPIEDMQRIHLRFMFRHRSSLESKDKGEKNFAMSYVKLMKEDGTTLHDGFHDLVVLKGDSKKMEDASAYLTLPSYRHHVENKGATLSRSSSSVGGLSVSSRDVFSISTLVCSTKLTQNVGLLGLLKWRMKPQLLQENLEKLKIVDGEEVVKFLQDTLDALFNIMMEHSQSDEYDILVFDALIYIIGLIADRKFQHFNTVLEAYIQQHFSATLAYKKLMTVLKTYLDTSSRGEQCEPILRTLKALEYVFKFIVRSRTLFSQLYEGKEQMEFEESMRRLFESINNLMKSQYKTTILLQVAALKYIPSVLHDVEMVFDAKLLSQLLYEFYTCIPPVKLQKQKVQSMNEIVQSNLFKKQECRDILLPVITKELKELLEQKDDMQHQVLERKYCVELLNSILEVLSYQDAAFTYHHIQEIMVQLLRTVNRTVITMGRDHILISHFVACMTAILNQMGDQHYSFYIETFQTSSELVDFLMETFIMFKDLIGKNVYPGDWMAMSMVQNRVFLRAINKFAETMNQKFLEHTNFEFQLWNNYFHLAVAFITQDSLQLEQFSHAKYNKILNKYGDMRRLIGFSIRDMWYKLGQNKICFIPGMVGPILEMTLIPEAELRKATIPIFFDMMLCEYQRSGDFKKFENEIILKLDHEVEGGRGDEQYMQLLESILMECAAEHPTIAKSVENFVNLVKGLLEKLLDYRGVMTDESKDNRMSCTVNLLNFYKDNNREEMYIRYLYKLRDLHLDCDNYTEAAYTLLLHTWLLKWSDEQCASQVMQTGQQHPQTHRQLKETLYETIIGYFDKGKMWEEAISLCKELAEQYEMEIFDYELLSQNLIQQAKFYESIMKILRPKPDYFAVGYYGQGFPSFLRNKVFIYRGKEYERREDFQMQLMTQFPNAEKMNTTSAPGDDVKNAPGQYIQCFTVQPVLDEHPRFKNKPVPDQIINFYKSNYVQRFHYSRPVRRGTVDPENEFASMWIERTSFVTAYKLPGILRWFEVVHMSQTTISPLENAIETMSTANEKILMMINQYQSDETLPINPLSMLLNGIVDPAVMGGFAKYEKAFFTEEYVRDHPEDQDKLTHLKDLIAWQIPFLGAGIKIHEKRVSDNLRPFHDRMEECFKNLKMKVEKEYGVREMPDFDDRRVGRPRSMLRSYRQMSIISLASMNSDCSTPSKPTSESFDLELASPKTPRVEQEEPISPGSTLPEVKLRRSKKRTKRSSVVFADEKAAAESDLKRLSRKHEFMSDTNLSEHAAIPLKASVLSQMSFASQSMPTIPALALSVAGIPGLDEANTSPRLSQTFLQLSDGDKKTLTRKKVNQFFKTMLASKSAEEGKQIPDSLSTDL
UniProt Q66K89: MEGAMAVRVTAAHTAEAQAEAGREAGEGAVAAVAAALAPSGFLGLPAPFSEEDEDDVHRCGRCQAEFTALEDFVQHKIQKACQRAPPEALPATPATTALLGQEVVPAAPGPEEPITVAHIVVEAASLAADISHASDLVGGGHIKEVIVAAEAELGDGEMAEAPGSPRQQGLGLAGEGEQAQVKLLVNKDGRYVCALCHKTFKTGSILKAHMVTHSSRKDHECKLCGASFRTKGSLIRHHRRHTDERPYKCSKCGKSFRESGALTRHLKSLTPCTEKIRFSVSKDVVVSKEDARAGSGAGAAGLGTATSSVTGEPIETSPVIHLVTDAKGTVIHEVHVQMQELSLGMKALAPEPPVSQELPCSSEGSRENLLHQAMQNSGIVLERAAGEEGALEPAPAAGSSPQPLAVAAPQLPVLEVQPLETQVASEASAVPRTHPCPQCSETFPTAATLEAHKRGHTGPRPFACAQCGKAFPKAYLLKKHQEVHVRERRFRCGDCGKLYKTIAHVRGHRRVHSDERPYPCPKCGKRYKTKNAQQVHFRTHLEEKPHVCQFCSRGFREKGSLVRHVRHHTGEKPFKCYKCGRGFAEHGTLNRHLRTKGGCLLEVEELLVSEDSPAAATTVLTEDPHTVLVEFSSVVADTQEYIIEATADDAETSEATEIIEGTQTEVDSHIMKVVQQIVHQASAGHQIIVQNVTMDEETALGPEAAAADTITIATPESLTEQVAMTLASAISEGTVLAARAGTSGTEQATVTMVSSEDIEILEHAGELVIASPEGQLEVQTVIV
UniProt O14641: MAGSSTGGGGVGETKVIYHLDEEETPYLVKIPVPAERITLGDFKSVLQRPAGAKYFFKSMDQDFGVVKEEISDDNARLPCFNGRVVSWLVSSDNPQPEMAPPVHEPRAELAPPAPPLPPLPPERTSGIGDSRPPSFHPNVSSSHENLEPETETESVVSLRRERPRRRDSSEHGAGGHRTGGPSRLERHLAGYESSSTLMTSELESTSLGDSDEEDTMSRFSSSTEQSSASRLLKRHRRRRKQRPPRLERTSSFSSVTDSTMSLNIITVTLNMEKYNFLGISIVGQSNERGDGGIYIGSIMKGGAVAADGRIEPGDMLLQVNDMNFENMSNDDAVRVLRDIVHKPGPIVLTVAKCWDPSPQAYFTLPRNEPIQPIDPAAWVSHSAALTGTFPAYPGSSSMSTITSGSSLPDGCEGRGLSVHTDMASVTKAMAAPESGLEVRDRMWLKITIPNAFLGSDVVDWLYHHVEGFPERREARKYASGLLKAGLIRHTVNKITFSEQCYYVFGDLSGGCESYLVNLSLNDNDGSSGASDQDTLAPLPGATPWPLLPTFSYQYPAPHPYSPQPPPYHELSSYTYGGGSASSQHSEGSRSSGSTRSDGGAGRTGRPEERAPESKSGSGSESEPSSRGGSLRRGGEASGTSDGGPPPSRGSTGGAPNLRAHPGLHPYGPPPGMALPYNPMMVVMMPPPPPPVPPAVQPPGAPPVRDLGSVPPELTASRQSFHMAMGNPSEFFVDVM

Compound in the first test: C1=CC=C(C=C1)C2=NC(=C(N2)C3=CC=NC=C3)C4=CC(=C(C=C4)Cl)O
As to the kind of experiment: log2 fold change, soluble protein after heating vs DMSO (PISA); higher = thermal stabilisation; K562 cells, 10 uM, 30 min; active = over 0.2 and 3.5 SD of the protein, either way, in both replicates (recomputed). An outline of the steps: (§1)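 Thermal stability values are relative to control samples and come from duplicates. They are expressed as log2 fold changes. For measurement, K562 cells (2×10^6 cells/mL) received 10 μM compound for 30 min, and aliquots were heated for 3 min over 48°C-58°C, pooled, and extracted at 4°C in PBS with 0.5% NP-40. Soluble protein, the supernatant after 21,000xg for 90 min, was quantified by TMTpro 16plex LC-MS/MS with equalised channel sums.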
Take DNAL1 (UniProt Q4LDG9): the log2 fold change is inactive: -0.113. As for DYNC2LI1 isoform 2 (UniProt Q8TCX1), the log2 fold change is inactive: -0.054. The same measure, in the same setting: the value for DOP1B (UniProt Q9Y3R5) was inactive: -0.1; that for DYNC1I1 (UniProt O14576) was inactive: 0.141; that for DUSP9 (UniProt Q99956) was inactive: -0.045.

For DNAJC24 (UniProt Q6P3W2), the log2 fold change is inactive: -0.084. ECT2 isoform 3 (UniProt Q9H8V3): the log2 fold change was inactive: 0.067. The same measure, in the same setting: as for DYM (UniProt Q7RTS9), the figure is inactive: 0.213; as for DONSON (UniProt Q9NYP3), inactive: 0.118. Still for that read-out and setting: as for DNAJC4 (UniProt Q9NNZ3), the figure is inactive: -0.028. The same measure, in the same setting: the value for DUS1L (UniProt Q6P1R4) was inactive: 0.077; that for DOCK10 (UniProt Q96BY6) was inactive: -0.07. For the target E4F1 (UniProt H3BN24), the log2 fold change was inactive: 0.084.

As for ECD isoform 3 (UniProt O95905), the log2 fold change is inactive: 0.025. Turning to DNAJB2 (UniProt P25686), the log2 fold change was inactive: -0.126. Take E2F3 (UniProt O00716): the log2 fold change was inactive: 0.037. Consider DOCK2 (UniProt Q92608), for which the log2 fold change was inactive: 0.19. Still for that read-out and setting: as for E4F1 (UniProt Q66K89), the figure is inactive: 0.097.

Compound in a further test: C1=CC=C2C(=C1)C3=NNC4=CC=CC(=C43)C2=O
The test is described as above. An outline of the steps: as §1
Consider DNAL1 (UniProt Q4LDG9), for which the log2 fold change is inactive: 0.091. The same measure, in the same setting: as for DVL2 (UniProt O14641), the figure is inactive: -0.182. The same measure, in the same setting: the value for ECM1 isoform 2 (UniProt Q16610) was inactive: -0.283; that for DONSON (UniProt Q9NYP3) was inactive: -0.088. With DROSHA (UniProt Q9NRR4), the log2 fold change was inactive: -0.255. On the same count and under the same terms, as for DPCD (UniProt Q9BVM2), the figure is inactive: 0.049. With DRAM2 (UniProt Q6UX65), the log2 fold change is inactive: 0.047. Same read-out and setting: as for DPY19L2 (UniProt Q6NUT2), the figure is inactive: 0.174. In the case of DYNLT3 (UniProt P51808), the log2 fold change is inactive: -0.103. Still for that read-out and setting: as for E4F1 (UniProt Q66K89), the figure is inactive: -0.002.

Compound in another test: C1CCN(C1)C(=O)NC2=CC=CC(=C2)NC3=NC=C(C(=N3)NCCC4=CN=CN4)Br
Described as above. The method, boiled down:
as §1
In the case of ECM1 isoform 2 (UniProt Q16610), the log2 fold change was inactive: 0.007. As to DOP1B (UniProt Q9Y3R5), the log2 fold change is inactive: 0.154.

Regarding DNAJC24 (UniProt Q6P3W2), the log2 fold change is inactive: -0.047. Still for that read-out and setting: as for DNPEP (UniProt C9JBE1), the figure is inactive: -0.005; as for DYM (UniProt Q7RTS9), inactive: -0.1; as for DONSON (UniProt Q9NYP3), inactive: 0.05. Same read-out and setting: as for DROSHA (UniProt Q9NRR4), the figure is inactive: 0.107. Still for that read-out and setting: as for DSTYK (UniProt Q6XUX3), the figure is inactive: -0.02; as for DUS1L (UniProt Q6P1R4), inactive: -0.126; as for DOCK10 (UniProt Q96BY6), inactive: 0.132. For DRAM2 (UniProt Q6UX65), the log2 fold change was inactive: 0.015. On the same count and under the same terms, the value for ECD isoform 3 (UniProt O95905) was inactive: 0.031; that for DNAJC25 (UniProt Q9H1X3) was inactive: -0.077.

For DPY19L2 (UniProt Q6NUT2), the log2 fold change is inactive: -0.019.

As for E2F3 (UniProt O00716), the log2 fold change was inactive: -0.002.

As to E4F1 (UniProt Q66K89), the log2 fold change was inactive: 0.027.

As for DNAJB1 (UniProt M0R128), the log2 fold change is inactive: 0.142.

The values above are taken from the supplement of paper PMC10849652.
